No constants are given. Whether binding was seen depends on the method and setting. Binding seen in cells or lysates may run through a third protein. Some entries that bind do so weakly or less than the wild type. For some of these results: Where a sequence is shown, tags or fusion partners need not be part of it.

The chains behind the UniProt entries cited, without tags or fusion partners. Residues count along the entry.
UniProt P31170, residues 44-227: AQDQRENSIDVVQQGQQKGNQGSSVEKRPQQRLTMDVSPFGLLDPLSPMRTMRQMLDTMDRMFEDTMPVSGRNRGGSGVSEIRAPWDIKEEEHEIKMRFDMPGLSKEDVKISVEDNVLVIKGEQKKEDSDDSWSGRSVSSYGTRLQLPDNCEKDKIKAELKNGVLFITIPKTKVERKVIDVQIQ

This passage reports binding results from article PMC9134606.

Assay [1] addresses HSP21 (mature) fused C-terminally to 3FLAG_nYFP or cYFP_3HA (UniProt P31170). Kind of assay: split reporter; BiFC, 174/175 YFP split, same constructions; Arabidopsis (GVG-AvrPto, dexamethasone 24 h before inoculation) epidermal cells.
Assay [2] has the same target. In words: split reporter; BiFC, 174/175 YFP split, 35S promoter, both chloroplast-targeted fusions from a single multigenic T-DNA with a reference FP (nucleo-cytosolic CFP, CTP-CFP or OEP7-mTRQ); N. benthamiana mesophyll cells, 3 days after agroinfiltration.
Assay [3] addresses HSP21 (mature) fused to the fragments of the 174/175 YFP split without epitope tags (UniProt P31170). The description is as above.
Assay [4] addresses HSP21 (mature) fused to the fragments of the 210/211 mVENUS split (UniProt P31170). In words: split reporter; BiFC, 210/211 mVENUS split, 35S promoter, chloroplast-targeted fusions from a single T-DNA; N. benthamiana mesophyll cells.
The target is the same in assay [5]. In words: split reporter; BiFC, 210/211 mVENUS split, Arabidopsis UBQ10 promoter, chloroplast-targeted fusions from a single T-DNA; N. benthamiana mesophyll cells.
Assay [6] deals with HSP21 (mature) with the YFP fragments fused to its N-terminus (UniProt P31170). In words: split reporter; BiFC, 174/175 YFP split, 35S promoter, both chloroplast-targeted fusions from a single multigenic T-DNA with a reference FP (nucleo-cytosolic CFP, CTP-CFP or OEP7-mTRQ); N. benthamiana mesophyll cells, 3 days after agroinfiltration.
The target of assay [7] is HSP21 (mature) fused C-terminally to 3FLAG_nYFP or cYFP_3HA (UniProt P31170). Described as above. The source holds these as a separate data set.

As to “HSP21 (mature) fused C-terminally to 3FLAG_nYFP or cYFP_3HA (from UniProt P31170 44-227)”, the binding entry in assay [1] and in assay [2] was “binds” in each case. Turning to “HSP21 (mature) fused to the fragments of the 174/175 YFP split without epitope tags (from UniProt P31170 44-227)”, in assay [3], the binding result is “binds”. Take “HSP21 (mature) fused to the fragments of the 210/211 mVENUS split (from UniProt P31170 44-227)”: the binding entry in assay [4] and in assay [5] was “binds” throughout. Consider “HSP21 (mature) with the YFP fragments fused to its N-terminus (from UniProt P31170 44-227)”, for which the binding result in assay [6] is listed as “binds”.

B1: PTAC5 fused to cYFP_3HA (protein, UniProt A1A6M1 41-387)
chain: CFSTQNPDREEVRWLREEQRWIREEQRWIREEQRWIRERESLLQEISDLQLRIQSLESRNSQLGNSIPDTISNIAALLQVLKEKNRISESGLSATPMVLESTREQIVEEVEEEEKRVIIAEEKVRVSEPVKKIKRRILKVGSEGDDVQALQEALLKLGFYSGEEDMEFSSFSSGTASAVKTWQASLGVREDGVMTAELLQRLFMDEDVETDKDEASTMKKEEAGNGAVFTSVTQVPEKKQSIVKDQSDREVDVTQNRVFLLGENRWEDPSRLIGRNKPVDRSESTNTKTRCITCRGEGRLMCLECDGTGEPNIEPQFMEWVGEDTKCPYCEGLGYTVCDVCDGKKNL
As for B1, in assay [7], the binding entry is reported as “binds”.
